Changes are numbered by the printed parent chain. Results are given in words; binding and its absence hold for the method and conditions named. Some results given as binding are weak or reduced against the parent protein; the word gives no strength.
B1: soluble MICA generated from pKK128 (loop 1 extended 5.1sp, loop 3 extended 3.2sp) (designed binder)
chain: HHHHHHEPHSLRYNLTVLSWDGSVQSGFLTEVHLDGQPFLRCDRQKCRAKPQGQWAEDVLGNKTWDRETRDLTGNGKDLRMTLAHIKDQKEGLHSLQEIRVCEIHEDNSTRSSQHFYYDGELFLSQNLETEEWTMPQSSRAQTLAMNVRNFLKEDAMKTKTHYHAMHADCLQELRRYLKSGVVLRRTVPPMVNVTSGGSGGGSVTRGDTFTQSSGGSGGGVTCRASGFYPWNITLSWRQDGVSLSHDTQQWGDVLPDGNGTYQTWVATRISGGSGGGSTSRGDHPRTQSGGSGGGCYMEHSGNHSTHPVPSGK
notes: From pKK115 (from pKK46: His6, Glu125); secreted by 293T cells; also called 1-5.1sp/3-3.2sp
B2: soluble MICA generated from pKK130 (loop 1 extended 5.1sp, loop 3 extended 5.3sp) (designed binder)
chain: B1 chain with T279H, S280L, R281A, G282R, D283G, H284D, P285D, R286L, Q288Y
notes: From pKK115 (from pKK46: His6, Glu125); secreted by 293T cells; also called 1-5.1sp/3-5.3sp
B3: soluble MICA generated from pKK129 (loop 1 extended 5.1sp, loop 3 extended 5.1sp) (designed binder)
chain: B1 chain with T279V, S280T, H284T, P285F, R286T, T287Q, Q288S
B4: soluble MICA generated from pKK131 (loop 1 extended 5.1sp, loop 3 extended 5.1spNH) (designed binder)
chain: B1 chain with T279V, S280T, H284T, P285F, R286T, T287Q, Q288S
B5: M13 phage pKK136 displaying MICA α3 domain with loop 1 insert 5.1sp and loop 3 insert 3.2sp (designed binder)
chain: TVPPMVNVTSGGSGGGSVTRGDTFTQSSGGSGGGVTCRASGFYPWNITLSWRQDGVSLSHDTQQWGDVLPDGNGTYQTWVATRISGGSGGGSTSRGDHPRTQSGGSGGGCYMEHSGNHSTHPVPSGK
notes: also called 1-5.1sp/3-3.2sp; not shown: C-terminal portion of M13 gene III protein, fused at codon position 198
B6: M13 phage pKK138 displaying MICA α3 domain with loop 1 insert 5.1sp and loop 3 insert 5.3sp (designed binder)
chain: B5 chain with T93H, S94L, R95A, G96R, D97G, H98D, P99D, R100L, Q102Y
notes: also called 1-5.1sp/3-5.3sp; not shown: C-terminal portion of M13 gene III protein, fused at codon position 198
B7: M13 phage pKK139 displaying MICA α3 domain with loop 1 insert 5.1sp and loop 3 insert 5.1spNH (designed binder)
chain: B5 chain with T93V, S94T, H98T, P99F, R100T, T101Q, Q102S
notes: also called 1-5.1sp/3-5.1spNH; not shown: C-terminal portion of M13 gene III protein, fused at codon position 198
B8: soluble MICA generated from pKK36 (loop 1 insert 3.1) (designed binder)
chain: HHHHHHEPHSLRYNLTVLSWDGSVQSGFLTEVHLDGQPFLRCDRQKCRAKPQGQWAEDVLGNKTWDRETRDLTGNGKDLRMTLAHIKDQKEGLHSLQEIRVCEIHEDNSTRSSQHFYYDGELFLSQNLETEEWTMPQSSRAQTLAMNVRNFLKEDAMKTKTHYHAMHADCLQELRRYLKSGVVLRRTVPPMVNVTSRGDHPRTQVTCRASGFYPWNITLSWRQDGVSLSHDTQQWGDVLPDGNGTYQTWVATRICQGEEQRFTCYMEHSGNHSTHPVPSGK
notes: From pKK34 (His6, Glu125); secreted by 293T cells; also called 1-3.1
B9: soluble MICA generated from pKK37 (loop 1 insert 3.2) (designed binder)
chain: HHHHHHEPHSLRYNLTVLSWDGSVQSGFLTEVHLDGQPFLRCDRQKCRAKPQGQWAEDVLGNKTWDRETRDLTGNGKDLRMTLAHIKDQKEGLHSLQEIRVCEIHEDNSTRSSQHFYYDGELFLSQNLETEEWTMPQSSRAQTLAMNVRNFLKEDAMKTKTHYHAMHADCLQELRRYLKSGVVLRRTVPPMVNVTRTSRGDHPRTQVTCRASGFYPWNITLSWRQDGVSLSHDTQQWGDVLPDGNGTYQTWVATRICQGEEQRFTCYMEHSGNHSTHPVPSGK
notes: From pKK34 (His6, Glu125); secreted by 293T cells; also called 1-3.2
B10: soluble MICA generated from pKK38 (loop 1 insert 3.3) (designed binder)
chain: HHHHHHEPHSLRYNLTVLSWDGSVQSGFLTEVHLDGQPFLRCDRQKCRAKPQGQWAEDVLGNKTWDRETRDLTGNGKDLRMTLAHIKDQKEGLHSLQEIRVCEIHEDNSTRSSQHFYYDGELFLSQNLETEEWTMPQSSRAQTLAMNVRNFLKEDAMKTKTHYHAMHADCLQELRRYLKSGVVLRRTVPPMVNVTRVPRGDSDLTVTCRASGFYPWNITLSWRQDGVSLSHDTQQWGDVLPDGNGTYQTWVATRICQGEEQRFTCYMEHSGNHSTHPVPSGK
notes: From pKK34 (His6, Glu125); secreted by 293T cells; also called 1-3.3
B11: soluble MICA generated from pKK39 (loop 1 insert 3.4) (designed binder)
chain: B10 chain with V197S, P198A, L204H, T205R
notes: From pKK34 (His6, Glu125); secreted by 293T cells; also called 1-3.4
B12: soluble MICA generated from pKK40 (loop 1 insert 5.1) (designed binder)
chain: B10 chain with R196V, V197T, P198R, R199G, G200D, D201T, S202F, D203T, L204Q, T205S
notes: From pKK34 (His6, Glu125); secreted by 293T cells; also called 1-5.1
B13: soluble MICA generated from pKK42 (loop 1 insert 5.3) (designed binder)
chain: B10 chain with R196H, V197L, P198A, S202D, D203L, L204T, T205Y
notes: From pKK34 (His6, Glu125); secreted by 293T cells; also called 1-5.3
B14: soluble MICA generated from pKK41 (loop 1 insert 5.2) (designed binder)
chain: HHHHHHEPHSLRYNLTVLSWDGSVQSGFLTEVHLDGQPFLRCDRQKCRAKPQGQWAEDVLGNKTWDRETRDLTGNGKDLRMTLAHIKDQKEGLHSLQEIRVCEIHEDNSTRSSQHFYYDGELFLSQNLETEEWTMPQSSRAQTLAMNVRNFLKEDAMKTKTHYHAMHADCLQELRRYLKSGVVLRRTVPPMVNVTRGDTFTQSVTCRASGFYPWNITLSWRQDGVSLSHDTQQWGDVLPDGNGTYQTWVATRICQGEEQRFTCYMEHSGNHSTHPVPSGK
notes: From pKK34 (His6, Glu125); secreted by 293T cells; also called 1-5.2
B15: soluble MICA generated from pKK44 (loop 1 insert extended 3.2sp) (designed binder)
chain: HHHHHHEPHSLRYNLTVLSWDGSVQSGFLTEVHLDGQPFLRCDRQKCRAKPQGQWAEDVLGNKTWDRETRDLTGNGKDLRMTLAHIKDQKEGLHSLQEIRVCEIHEDNSTRSSQHFYYDGELFLSQNLETEEWTMPQSSRAQTLAMNVRNFLKEDAMKTKTHYHAMHADCLQELRRYLKSGVVLRRTVPPMVNVTSGGSGGGSTSRGDHPRTQSGGSGGGVTCRASGFYPWNITLSWRQDGVSLSHDTQQWGDVLPDGNGTYQTWVATRICQGEEQRFTCYMEHSGNHSTHPVPSGK
notes: From pKK34 (His6, Glu125); secreted by 293T cells; also called 1-3.2sp
B16: soluble MICA generated from pKK45 (loop 1 insert extended 3.3sp) (designed binder)
chain: B15 chain with T204R, S205V, R206P, G207R, D208G, H209D, P210S, R211D, T212L, Q213T
notes: From pKK34 (His6, Glu125); secreted by 293T cells; also called 1-3.3sp

Chains of the proteins cited; added tags and fusions are not shown. Lines headed by an entry give the natural chain unless they say otherwise; changes in a name come on top.
UniProt P06756: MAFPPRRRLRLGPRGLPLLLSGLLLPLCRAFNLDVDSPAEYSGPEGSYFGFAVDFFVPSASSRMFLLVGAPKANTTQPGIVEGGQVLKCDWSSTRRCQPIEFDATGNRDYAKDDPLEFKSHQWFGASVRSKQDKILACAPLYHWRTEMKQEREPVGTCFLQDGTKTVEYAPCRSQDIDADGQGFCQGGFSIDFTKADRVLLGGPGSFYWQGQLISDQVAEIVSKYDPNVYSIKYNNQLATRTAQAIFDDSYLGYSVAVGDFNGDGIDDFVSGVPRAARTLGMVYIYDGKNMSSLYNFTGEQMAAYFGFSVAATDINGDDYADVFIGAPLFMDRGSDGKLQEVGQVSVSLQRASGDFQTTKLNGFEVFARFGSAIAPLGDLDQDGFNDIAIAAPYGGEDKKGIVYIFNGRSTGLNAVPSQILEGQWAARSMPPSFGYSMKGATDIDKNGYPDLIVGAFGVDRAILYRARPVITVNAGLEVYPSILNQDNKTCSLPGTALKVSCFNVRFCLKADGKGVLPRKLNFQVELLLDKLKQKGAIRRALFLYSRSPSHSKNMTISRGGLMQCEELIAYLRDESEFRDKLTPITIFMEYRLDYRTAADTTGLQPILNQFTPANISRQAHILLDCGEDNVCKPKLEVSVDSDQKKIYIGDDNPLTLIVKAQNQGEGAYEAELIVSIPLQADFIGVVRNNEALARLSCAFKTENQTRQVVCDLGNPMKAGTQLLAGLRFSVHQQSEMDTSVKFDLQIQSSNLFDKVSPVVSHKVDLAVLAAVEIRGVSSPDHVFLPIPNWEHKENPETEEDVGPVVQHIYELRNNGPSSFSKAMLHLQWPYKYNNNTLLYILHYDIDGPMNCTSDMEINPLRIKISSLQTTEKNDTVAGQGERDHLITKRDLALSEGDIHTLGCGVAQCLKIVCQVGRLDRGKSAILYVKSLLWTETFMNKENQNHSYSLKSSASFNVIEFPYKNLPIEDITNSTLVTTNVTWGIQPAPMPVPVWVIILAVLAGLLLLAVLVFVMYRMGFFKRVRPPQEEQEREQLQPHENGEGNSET

Assays:
integrin αVβ5 [1] = target: T1, integrin αVβ5 (UniProt P06756 31-992; P18084 24-719); assay: ELISA, coated integrin, anti-MICA-HRP
T1 construct: Coated on the ELISA plate

integrin αVβ3 [2] = target: T2, integrin αVβ3 (UniProt P06756 31-992; P05106 27-718); assay: ELISA, coated integrin, anti-MICA-HRP
T2 construct: Coated on the ELISA plate

integrin αVβ5 [3] = target: T1, integrin αVβ5; assay: phage ELISA, coated integrin, anti-M13-HRP
integrin αVβ3 [4] = target: T2, integrin αVβ3; assay: phage ELISA, coated integrin, anti-M13-HRP

| Binder | binding (integrin αVβ5 [1]) | binding (integrin αVβ3 [2]) | binding (integrin αVβ5 [3]) | binding (integrin αVβ3 [4]) |
| --- | --- | --- | --- | --- |
| B1 | binds | binds | – | – |
| B2 | binds | binds | – | – |
| B3 | binds | binds | – | – |
| B4 | binds | binds | – | – |
| B5 | – | – | binds | binds |
| B6 | – | – | binds | binds |
| B7 | – | – | binds | binds |
| B8 | binds | binds | – | – |
| B9 | binds | binds | – | – |
| B10 | binds | binds | – | – |
| B11 | binds | binds | – | – |
| B12 | binds | binds | – | – |
| B13 | binds | binds | – | – |
| B14 | binds | binds | – | – |
| B15 | binds | binds | – | – |
| B16 | binds | binds | – | – |

Reference: patent US20150165065A1 (AVIDBIOTICS, published 2015)
